Source: patent publication US20160311880A1
No constants are given. Whether binding was seen depends on the method and setting. Binding can be weak; no strength is given.

Tests used:
[1] = target: zebrafish aplnrb (zebrafish); experiment: AP-ELA cell-surface binding to transfected HEK293T cells
[2] = target: zebrafish aplnrb (zebrafish); experiment: AP-ELA cell-surface binding to transfected 293T cells (FIG. 7G)
[3] = target: zebrafish aplnrb (zebrafish); experiment: AP-ELA cell-surface binding to transfected 293T cells (FIG. 7H)

Measured: binding

QRPVNLTMRRKLRKHNCLQRRCMPLHSRVPFP (peptide, not shown: large carriers) [recombinant ELA conjugated to Alkaline-Phosphatase (AP-ELA)]
binds: all assays above
